Assay results taken from PubChem BioAssay AID624297 (National Center for Advancing Translational Sciences (NCATS), 2012).
The whole screen tested about 340,000 compounds, of which about 6,200 (1.8%) were called active. The inconclusive results got no clear call from the source; some entries with a clear call stand among them for comparison. Calls follow the shape of the dose curve; as a rule, active = well fitted activation curve with a large enough effect; inconclusive = small, poorly fitted or top-dose-only effect; inactive = no such curve, though single readings can be large or run the other way. Where the call is inconclusive, the potency comes from a doubtful curve fit.

Test: A quantitative high throughput screen for small molecules that induce DNA re-replication in SW480 colon adenocarcinoma cells. Also: nearly all actives have a fitted effect of over 55% in size. As to re-replication activation: % of control where 0% means no effect.
Conditions: Hoechst DNA content imaging, 48 h; re-replication activation: at 46.1 µM (top of the series) unless noted
Summary of the method: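 SW480 cells exposed to compounds for 48 hr at 37 C, 5% CO2, then Hoechst-stained 40 min. Nuclear DNA content imaged by fluorescence scanning (405 nm excitation, 500-530 nm emission); re-replication scored as increased high-intensity nuclei.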
Potency is read from the fitted curve at half-maximal effect.

| Structure (SMILES) | Potency | re-replication activation |
| --- | --- | --- |
| CC(C)CC(C(=O)NC1CCCCC1)N(Cc1cccs1)C(=O)c1snc(C(N)=O)c1N (centres undefined) | inconclusive: 2.31 µM [activator, full curve] | – |
| O=C(CN1C(=O)/C(=C/c2cccc(Br)c2)SC1=S)N1CCCC1 | inconclusive: 3.26 µM [activator, partial curve, poor fit] | – |
| COc1ccc(NC(=O)Cc2nnc(SCC(=O)Nc3ccc(F)cc3)n2C)cc1 | inconclusive: 28.2 µM [activator, single point] | – |
| COc1ccc(-c2cc(C(=O)N/N=C/c3cc(OC)c(OC)cc3OC)c3ccccc3n2)cc1 | inconclusive: 18.4 µM [activator, partial curve, poor fit] | – |
| CN(C(=O)Cn1cccc1C1=NC(c2ccccc2)CO1)c1ccccc1 (centres undefined) | inconclusive: 0.146 µM [activator, full curve, poor fit] | – |
| COc1cc(/C=C/C(=O)O)ccc1O | inconclusive: 0.92 µM [activator, full curve, poor fit] | – |
| O=C(CCC(=O)CCN1CCCCC1)CCN1CCCCC1 | inconclusive: 20.6 µM [activator, single point] | – |
| CCOC(=O)C(=NCC1CCCO1)NNc1cc(Cl)ccc1Cl (centres undefined) | inconclusive: 6.51 µM [activator, partial curve, poor fit] | – |
| CCCn1c(N)c(C(=O)COC(=O)CCS(=O)(=O)c2ccc(C)cc2)c(=O)[nH]c1=O | – | inactive: 0.733% |
| Cc1ccc(S(=O)(=O)c2nc(-c3ccccc3Cl)oc2NCCCN2CCOCC2)cc1 | inconclusive: 29.1 µM [activator, single point] | – |
| COc1ccc(S(=O)(=O)N(CC(=O)N2CCOCC2)Cc2ccccc2)cc1 | inconclusive: 32.6 µM [activator, partial curve, poor fit] | – |
| COc1ccc(S(=O)(=O)N(C)C)cc1NC(=O)COC(=O)Cn1cnc2ccccc2c1=O | inconclusive: 0.092 µM [activator, full curve, poor fit] | – |
| CC(C)(C)c1cc(CCC(=O)NCc2ccccn2)cc(C(C)(C)C)c1O | inconclusive: 4.61 µM [activator, full curve, poor fit] | – |
| Cc1ccc(-c2c[n+](CC(=O)c3cccs3)c3n2CCC3)cc1 | – | inactive: 4.66% |
| CC1CC(=O)Nc2ccccc2N1S(=O)(=O)c1ccccc1 (centres undefined) | – | inactive: -6.18% |
| CC(=O)C1=C(c2ccccc2)N(C(C)=O)n2c(C)nnc2S1 | inconclusive: 29.1 µM [activator, single point] | – |
| Cc1sc(NC(=O)CCl)c(C(=O)c2ccccc2)c1C | inconclusive: 20.6 µM [activator, single point] | – |
| Cc1cccc(NC(=O)c2nc[nH]c2C(=O)N2CCc3ccccc3C2)c1 | inconclusive: 0.206 µM [activator, full curve, poor fit] | – |
| O=C(Nc1ccc(Cl)cc1)C1CCCCN1S(=O)(=O)c1ccccc1 (centres undefined) | inconclusive: 0.164 µM [activator, full curve, poor fit] | – |
| COc1ccc(/C=C/c2cccc[n+]2C)c(O)c1 | – | inactive: -0.689% |
| O=C(N/N=C/c1ccncc1)c1cccs1 | – | inactive: -8.96% |
| COc1ccc(N2C(=O)Cc3c2nc(N)c(C#N)c3N)cc1 | inconclusive: 2.31 µM [activator, full curve, poor fit] | – |
| CN1CCc2c(C#N)c(N3CCCCC3)nc(NCc3ccccc3)c2C1 | inconclusive: 29.1 µM [activator, single point] | – |

| Structure (SMILES) | Potency | re-replication activation |
| --- | --- | --- |
| COc1cnc(-c2ccccn2)nc1Oc1ccc(Cl)c2ccccc12 | inconclusive: 29.1 µM [activator, single point] | – |
| CNC(=S)N(CCc1c(C)[nH]c2ccc(C)cc12)Cc1cc(OC)c(OC)c(OC)c1 | inconclusive: 5.8 µM [activator, full curve, poor fit] | – |
| N#Cc1ccc(Oc2c(Cl)cncc2Cl)cc1 | – | inactive: -3.19% |
| COc1ccc(CCC(C)NCc2ccccc2OC)cc1 (centres undefined) | inconclusive: 18.4 µM [activator, single point] | – |
| CCOC(=O)c1c(NC(=O)Cn2cc([N+](=O)[O-])cn2)sc2c1CCC2 | – | inactive: 0.665% |
| CC[C@]12c3[nH]c4ccc(OC)cc4c3CCN1C(=O)C(CC(=O)NCCCN(C)C)C[C@@H]2C(=O)N1CCN(C(=O)c2ccco2)CC1 (some centres undefined) | inconclusive: 0.517 µM [activator, partial curve, poor fit] | – |
| COc1ccc(C2CC3(CC(C)(C)NC(=O)N3)Oc3cc(O)ccc32)cc1 (centres undefined) | – | inactive: -10.8% |
| CN(NS(=O)(=O)c1ccccc1)c1nc2ccccc2nc1C(F)(F)F | – | inactive: 2.21% |
| O=c1[nH]c(=O)n([C@H]2C[C@H](O)[C@@H](CO)O2)cc1F | inconclusive: 0.0731 µM [activator, full curve, poor fit] | – |
| CN(CC(=O)Nc1ccccc1Cl)CC(=O)Nc1sc2c(c1C(N)=O)CCC2 | inconclusive: 0.92 µM [activator, full curve] | – |
| CCC(C)N1C(=O)/C(=C/c2c(NCCCOC(C)C)nc3c(C)cccn3c2=O)SC1=S (centres undefined) | – | inactive: -2.49% |
| CC(O)CNc1ncnc2cc(-c3ccc(F)cc3)sc12 (centres undefined) | inconclusive: 18.4 µM [activator, single point] | – |
| CCOP(=O)(OCC)c1nc(-c2ccccc2Cl)oc1N1CCOCC1 | – | inactive: -17.7% |
| COCCCn1c(N)c(-c2nc3ccccc3n2C)c2nc3ccccc3nc21 | inconclusive: 29.1 µM [activator, single point] | – |
| Oc1ccccc1-c1cc(-c2ccc(Cl)cc2)n[nH]1 | inconclusive: 16.4 µM [activator, single point] | – |
| COc1ccc(-c2noc(-c3ccccc3F)n2)cc1 | – | inactive: 3.43% |
| COc1ccccc1C(=O)NNC(=O)C(=O)Nc1ccc(C)cc1 | inconclusive: 29.1 µM [activator, single point] | – |
| CS(=O)(=O)Nc1ccccc1C(=O)NC1CC2CCC1C2 (centres undefined) | inconclusive: 7.31 µM [activator, partial curve, poor fit] | – |
| CCOC(=O)CCN(Cc1sccc1C)S(=O)(=O)c1ccc(F)cc1 | inconclusive: 5.17 µM [activator, single point] | – |
| Cc1ccc(S(=O)(=O)N(Cc2ccccc2)c2ccccc2C(=O)NCc2cccnc2)cc1 | inconclusive: 14.6 µM [activator, single point] | – |
| CCOC(=O)CSc1nnc(-c2c[nH]c3ccccc23)n1CC | – | inactive: -7.3% |
| COCC1CCN(C(=O)C2CCC(=O)N(Cc3cccc(C(F)(F)F)c3)C2)CC1 (centres undefined) | inconclusive: 0.92 µM [activator, full curve, poor fit] | – |
| CCOc1ccc(NC(=O)CC2C(=O)N(c3ccccc3)C(=S)N2Cc2ccccn2)cc1 (centres undefined) | inconclusive: 20.6 µM [activator, partial curve, poor fit] | – |

By substructure: the entries above containing a cyano group (3)

| Structure (SMILES) | Potency | re-replication activation |
| --- | --- | --- |
| COc1ccc(N2C(=O)Cc3c2nc(N)c(C#N)c3N)cc1 | inconclusive: 2.31 µM [activator, full curve, poor fit] | – |
| CN1CCc2c(C#N)c(N3CCCCC3)nc(NCc3ccccc3)c2C1 | inconclusive: 29.1 µM [activator, single point] | – |
| N#Cc1ccc(Oc2c(Cl)cncc2Cl)cc1 | – | inactive: -3.19% |

(next part)

| Structure (SMILES) | Potency | re-replication activation |
| --- | --- | --- |
| COc1cc(OC)c(-n2cc(-c3ccc(OC)c(OC)c3)[nH]c2=S)cc1Cl | – | inactive: -2.84% |
| COc1ccc2occ(C(C)=O)c2c1 | inconclusive: 29.1 µM [activator, single point] | – |
| O=C(Nc1ccccc1)NC1CCCCCCC1 | – | inactive: -38.1% |
| CC(=O)/C(C#N)=C1\NC(=O)C(Cc2ccccc2)S1 (centres undefined) | inconclusive: 32.6 µM [activator, partial curve, poor fit] | – |
| Cc1cc(C)n2nc(SCC(=O)c3cccs3)nc2n1 | inconclusive: 29.1 µM [activator, single point] | – |
| Cc1nn(Cc2ccccc2Cl)c(C)c1C(=O)Nc1nnc(C2CC2)s1 | inconclusive: 3.98 µM [activator, partial curve, poor fit] | – |
| Cc1ccc2[nH]c(=O)c(CN(C(=O)c3cccc([N+](=O)[O-])c3)C(C)C)cc2c1 | – | inactive: 18.1% |
| CCCCC(CC)CNC(=O)C(=O)c1ccccc1NC(C)=O (centres undefined) | – | inconclusive: 60% [activator] |
| Cc1cc(Cl)ccc1OCC(=O)N1CC(C)CC(C)C1 (centres undefined) | – | inactive: 4.38% |
| CC(=O)c1ccccc1OCCn1nnc(-c2ccc(C)cc2)n1 | – | inactive: -2.77% |
| COc1cc2c(cc1OC)C(C(=O)Nc1cc(OC)c(OC)c(OC)c1)C(c1cccnc1)N(C)C2=O (centres undefined) | inconclusive: 1.16 µM [activator, single point] | – |
| CCC(C)Sc1ccc([C@H]2N[C@@](Cc3ccccc3)(C(=O)OC)[C@H]3C(=O)N(CC)C(=O)[C@@H]23)cc1 (some centres undefined) | – | inactive: -8.92% [at 9.22 µM] |
| CC(C)(C)NCC(O)CON=C1c2ccccc2-c2ccccc21 (centres undefined) | inconclusive: 18.4 µM [activator, single point] | – |
| O=C(c1cn(-c2ccccc2)nc1-c1ccc(Br)cc1)N1CCOCC1 | active: 23.1 µM | – |
| CCOc1ccc2[nH]c(C(=O)N/N=C/c3ccccc3OC)cc2c1 | active: 14.6 µM | – |
| O=C1CSC(=Nc2ccccc2Cl)N1 | – | inactive: -0.791% |
| Cc1ccc(C)c(N(CC(=O)NCc2ccco2)C(=O)CCC(=O)Nc2nccs2)c1 | – | inactive: -33.9% |
| COc1cnn(-c2ccc([N+](=O)[O-])cc2)c(=O)c1Cl | inconclusive: 16.4 µM [activator, single point] | – |
| CCCCn1c(N)c(N(CCC(C)C)C(=O)COC(=O)c2ccc([N+](=O)[O-])s2)c(=O)[nH]c1=O | inconclusive: 29.1 µM [activator, single point] | – |
| COc1ccc(C(NC(=O)CN2C(=O)NC3(CCc4ccccc43)C2=O)c2ccccc2)cc1 (centres undefined) | inconclusive: 29.1 µM [activator, single point] | – |
| S=C1NC2CCCCC2N1 (centres undefined) | – | inactive: -2.93% |
| CCCOc1ccc(CNC(=S)Nc2ccccc2)cc1Cl | inconclusive: 18.4 µM [activator, single point] | – |
| Cc1cc(C)c2nc(Cl)c(CN(Cc3ccco3)C(=O)Nc3ccccc3C)cc2c1 | inconclusive: 32.6 µM [activator, partial curve, poor fit] | – |
